In patent US20190374627A1, “TARGET PEPTIDES FOR CANCER THERAPY AND DIAGNOSTICS” (priority 2016, published 2019) one finds Ovarian, Colorectal and Melanoma data, which are given here for 40 substances.

Common to all, as to parameters: key: The presence of phosphopeptides in previously analyzed samples including leukemia, colorectal cancer, melanoma, ovarian cancer, breast cancer, and esophageal cancer is indicated by ✓
Data set [1] concerns ovarian cancer. The experiment in a line: Presence of the phosphopeptide in previously analyzed ovarian cancer samples.
The subject of data set [2] is colorectal cancer. Put plainly: Presence of the phosphopeptide in previously analyzed colorectal cancer samples.
The test system of data set [3] is melanoma. The experiment in a line: Presence of the phosphopeptide in previously analyzed melanoma samples.

With “2 (ALDSGASLLHL; (4)...(4) The amino acid at this position is optionally phosphorylated; listed as Homo sapiens) [compound 2]”, in data set [1], the Ovarian result is reported as “✓”. In data set [2], the Colorectal entry is on record as “✓”.

Take “6 (AVVSPPALHNA; (5)...(5) The amino acid at this position is optionally phosphorylated; listed as Homo sapiens) [compound 6]”: in data set [3], the Melanoma entry is “✓”. For the same substance, the Ovarian result in data set [1] is recorded as “✓”.

On to “15 (KAFSPVR; (4)...(4) The amino acid at this position is optionally phosphorylated; listed as Homo sapiens) [compound 15]”, for which the Ovarian entry in data set [1] is on record as “✓”. Besides, the Colorectal result in data set [2] is given as “✓”.

Take “19 (KLASPELERL; (4)...(4) The amino acid at this position is optionally phosphorylated; listed as Homo sapiens) [compound 19]”: the Melanoma result in data set [3] was “✓”. For the same substance, the Ovarian entry in data set [1] is recorded as “✓”. Further, the Colorectal result in data set [2] is recorded as “✓”.

Regarding “23 (KLIDRTESL; (8)...(8) The amino acid at this position is optionally phosphorylated; listed as Homo sapiens) [compound 23]”, in data set [1], the Ovarian entry was “✓”. Moreover, the Colorectal entry in data set [2] was “✓”.

“25 (KLMSPKADVKL; (4)...(4) The amino acid at this position is optionally phosphorylated; listed as Homo sapiens) [compound 25]”: the Melanoma result in data set [3] is “✓”. For the same substance, the Ovarian result in data set [1] was “✓”.

As for “27 (KTMSGTFLL; (4)...(4) The amino acid at this position is optionally phosphorylated; listed as Homo sapiens) [compound 27]”, the Ovarian entry in data set [1] was “✓”. Also, the Colorectal result in data set [2] is “✓”.

In the case of “29 (LMFSPVTSL; (4)...(4) The amino acid at this position is optionally phosphorylated; listed as Homo sapiens) [compound 29]”, the Melanoma entry in data set [3] is given as “✓”. For the same substance, the Ovarian result in data set [1] is “✓”.

With “33 (RLASYLDKV; (4)...(4) The amino acid at this position is optionally phosphorylated; listed as Homo sapiens) [compound 33]”, the Ovarian entry in data set [1] is given as “✓”.

On to “35 (RLDSYVR; (4)...(4) The amino acid at this position is optionally phosphorylated; listed as Homo sapiens) [compound 35]”, for which, in data set [3], the Melanoma entry is reported as “✓”. In addition, the Ovarian entry in data set [1] is “✓”.

For “38 (RLFSKELR; (4)...(4) The amino acid at this position is optionally phosphorylated; listed as Homo sapiens) [compound 38]”, the Melanoma result in data set [3] was “✓”. Moreover, the Ovarian entry in data set [1] was “✓”.

Take “39 (RLFSKELRC; (4)...(4) The amino acid at this position is optionally phosphorylated; listed as Homo sapiens) [compound 39]”: in data set [3], the Melanoma entry is “✓”. For the same substance, in data set [1], the Ovarian result is on record as “✓”.

For “40 (RLLSDLEEL; (4)...(4) The amino acid at this position is optionally phosphorylated; listed as Homo sapiens) [compound 40]”, the Ovarian result in data set [1] is “✓”.

Take “41 (RLLSTDAEAV; (4)...(4) The amino acid at this position is optionally phosphorylated; listed as Homo sapiens) [compound 41]”: the Ovarian result in data set [1] is “✓”.

On to “42 (RLSDTPPLL; (5)...(5) The amino acid at this position is optionally phosphorylated; listed as Homo sapiens) [compound 42]”, for which the Ovarian entry in data set [1] is listed as “✓”.

With “44 (RMYSFDDVL; (4)...(4) The amino acid at this position is optionally phosphorylated; listed as Homo sapiens) [compound 44]”, the Ovarian result in data set [1] is listed as “✓”.

For “47 (RQASLSISV; (4)...(4) The amino acid at this position is optionally phosphorylated; listed as Homo sapiens) [compound 47]”, the Ovarian entry in data set [1] is listed as “✓”.

Turning to “50 (RQLSALHRA; (4)...(4) The amino acid at this position is optionally phosphorylated; listed as Homo sapiens) [compound 50]”, in data set [1], the Ovarian result is recorded as “✓”.

On to “52 (RSLSESYEL; (4)...(4) The amino acid at this position is optionally phosphorylated; listed as Homo sapiens) [compound 52]”, for which the Ovarian entry in data set [1] is recorded as “✓”.

As for “53 (RSLSQELVGV; (4)...(4) The amino acid at this position is optionally phosphorylated; listed as Homo sapiens) [compound 53]”, the Ovarian result in data set [1] was “✓”.

Regarding “55 (RTLSHISEA; (4)...(4) The amino acid at this position is optionally phosphorylated; listed as Homo sapiens) [compound 55]”, the Melanoma entry in data set [3] is listed as “✓”. For the same substance, the Ovarian result in data set [1] is recorded as “✓”.

In the case of “56 (RTYSGPMNKV; (4)...(4) The amino acid at this position is optionally phosphorylated; listed as Homo sapiens) [compound 56]”, the Ovarian result in data set [1] was “✓”.

For the substance “58 (SIMSPEIQL; (4)...(4) The amino acid at this position is optionally phosphorylated; listed as Homo sapiens) [compound 58]”, the Ovarian result in data set [1] was “✓”.

Regarding “60 (SISSTPPAV; (5)...(5) The amino acid at this position is optionally phosphorylated; listed as Homo sapiens) [compound 60]”, in data set [1], the Ovarian result is recorded as “✓”.

In the case of “61 (SLFGGSVKL; (6)...(6) The amino acid at this position is optionally phosphorylated; listed as Homo sapiens) [compound 61]”, the Ovarian entry in data set [1] is listed as “✓”.

As to “62 (SLFSGDEENA; (4)...(4) The amino acid at this position is optionally phosphorylated; listed as Homo sapiens) [compound 62]”, in data set [1], the Ovarian result is listed as “✓”.

“63 (SLFSPQNTL; (4)...(4) The amino acid at this position is optionally phosphorylated; listed as Homo sapiens) [compound 63]”: the Ovarian entry in data set [1] is recorded as “✓”.

Take “64 (SLFSSEESNL; (4)...(4) The amino acid at this position is optionally phosphorylated; listed as Homo sapiens) [compound 64]”: the Ovarian result in data set [1] is “✓”.

As for “65 (SLFSSEESNLGA; (4)...(4) The amino acid at this position is optionally phosphorylated; listed as Homo sapiens) [compound 65]”, the Melanoma result in data set [3] is “✓”. Moreover, in data set [1], the Ovarian result is on record as “✓”.

With “66 (SLHDIQLSL; (8)...(8) The amino acid at this position is optionally phosphorylated; listed as Homo sapiens) [compound 66]”, the Ovarian result in data set [1] is on record as “✓”.

On to “68 (SLQSLETSV; (4)...(4) The amino acid at this position is optionally phosphorylated; listed as Homo sapiens) [compound 68]”, for which the Ovarian result in data set [1] is “✓”.

On to “69 (SMSSLSREV; (4)...(4) The amino acid at this position is optionally phosphorylated; listed as Homo sapiens) [compound 69]”, for which, in data set [1], the Ovarian entry is “✓”.

Regarding “70 (SMTRSPPRV; (5)...(5) The amino acid at this position is optionally phosphorylated; listed as Homo sapiens) [compound 70]”, the Melanoma result in data set [3] is on record as “✓”. Also, the Ovarian entry in data set [1] is on record as “✓”.

As for “72 (TVFSPTLPAA; (4)...(4) The amino acid at this position is optionally phosphorylated; listed as Homo sapiens) [compound 72]”, the Ovarian result in data set [1] is reported as “✓”.

As to “73 (VLFSSPPQM; (5)...(5) The amino acid at this position is optionally phosphorylated; listed as Homo sapiens) [compound 73]”, the Ovarian result in data set [1] is “✓”.

On to “74 (VLLSPVPEL; (4)...(4) The amino acid at this position is optionally phosphorylated; listed as Homo sapiens) [compound 74]”, for which the Melanoma result in data set [3] is “✓”. Further, in data set [1], the Ovarian result is recorded as “✓”.

“75 (VLYSPQMAL; (4)...(4) The amino acid at this position is optionally phosphorylated; listed as Homo sapiens) [compound 75]”: the Ovarian result in data set [1] was “✓”.

“77 (YLQSRYYRA; (1)...(1) The amino acid at this position is optionally phosphorylated; listed as Homo sapiens) [compound 77]”: in data set [1], the Ovarian result was “✓”.

“202 (RTRSPSPTL; (4)...(4) The amino acid at this position is optionally phosphorylated; listed as Homo sapiens) [compound 202]”: in data set [3], the Melanoma result is on record as “✓”. Also, in data set [1], the Ovarian result is recorded as “✓”.

As to “387 (RVDSPSHGL; (4)...(4) The amino acid at this position is optionally phosphorylated; listed as Homo sapiens) [compound 387]”, the Ovarian result in data set [1] is “✓”.
